The values that follow come from article PMC5963807.

The assay concerns the target CIRV p36 replication protein (split-ubiquitin bait) (carnation Italian ringspot virus). Put plainly: two-hybrid; split-ubiquitin-based membrane yeast two-hybrid assay (MYTH); bait co-expressed with NubG-tagged prey in yeast; empty prey vector (NubG) as negative control.

These are yes or no findings as the source states them, for the method shown. Binding calls can cover weak binding; strength is not graded here. Where a sequence is shown, tags or fusion partners need not be part of it.

B1: Ufe1p, N-terminally tagged split-ubiquitin prey (protein, UniProt P41834 1-346)
chain: MMSDLTPIFRKYVAVIDDARNEQNGIDDHVERKQEDFGNSNETCEMFRDSFIKECARLLKFLVELNKVIKQIEKNYLDDFNMSDAEKDEFDMECRLQIQQYFKKFEFLENYEMERHNLSLKRFQSKSHRWSKILSNKNDNTKHVIHPQDIENGVYEFRLGVLRCLNLWIKYVSSKFTTIQQERLILENKMNFNSTPMPTLSNNADDFSADAIDISVSQSAPVETVQDEVKHYEETISKLTQEQLQVLETEHSELLNQKNEQLKKVETINKTILDIVNIQNELSNHLTVQSQNINLMLNNQDDIELNIKKGNKELRKAKRAAGRTAKMTTYGAIIMGVFILFLDYVG
For B1, the binding entry is on record as “binds”.
